Assay results from the supplement of paper PMC8728848.
The list shows a part of the results.

How the values were obtained:
Experiment in all cases: glycan array binding signal (z-score within array); higher = stronger binding
Conditions in all cases: glycan notation: IUPAC condensed, linker removed
[1] = biological target: Neu5Ac(a2-3)Gal(b1-4)GlcNAc(b1-3)[Neu5Ac(a2-3)Gal(b1-4)GlcNAc(b1-6)]GalNAc
Outline: (§1)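 The binding signal is a Z-score computed within each array. Data were drawn from 3228 arrays in the Consortium for Functional Glycomics database, restricted to those with a known protein sequence. Scores were averaged over arrays of the same protein sequence at different concentrations or buffers, and over linkers, and negative values can be taken as non-binding.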

[2] = biological target: Neu5Ac(a2-3)Gal(b1-4)GlcNAc(b1-6)GalNAc
Outline: as §1

[3] = biological target: Neu5Ac(a2-3)Gal(b1-4)GlcNAc(b1-6)[Gal(b1-3)]GalNAc
Outline: as §1

[4] = biological target: Neu5Ac(a2-3)Gal(b1-4)GlcNAc(b1-6)[Neu5Ac(a2-3)Gal(b1-3)]GalNAc
Outline: as §1

[5] = biological target: Neu5Ac(a2-3)Gal(b1-4)GlcNAc6S
Outline: as §1

[6] = biological target: Neu5Ac(a2-3)Gal(b1-4)[Fuc(a1-3)]GlcNAc
Outline: as §1

[7] = biological target: Neu5Ac(a2-3)Gal(b1-4)[Fuc(a1-3)]GlcNAc(b1-2)Man
Outline: as §1

[8] = biological target: Neu5Ac(a2-3)Gal(b1-4)[Fuc(a1-3)]GlcNAc(b1-3)Gal
Outline: as §1

[9] = biological target: Neu5Ac(a2-3)Gal(b1-4)[Fuc(a1-3)]GlcNAc(b1-3)Gal(b1-4)GlcNAc
Outline: as §1

[10] = biological target: Neu5Ac(a2-3)Gal(b1-4)[Fuc(a1-3)]GlcNAc(b1-3)Gal(b1-4)[Fuc(a1-3)]GlcNAc(b1-3)Gal(b1-4)[Fuc(a1-3)]GlcNAc
Outline: as §1

[11] = biological target: Neu5Ac(a2-3)Gal(b1-4)[Fuc(a1-3)]GlcNAc(b1-3)GalNAc
Outline: as §1

[12] = biological target: Neu5Ac(a2-3)Gal(b1-4)[Fuc(a1-3)]GlcNAc(b1-6)[Gal(b1-3)]GalNAc
Outline: as §1

[13] = biological target: Neu5Ac(a2-3)Gal(b1-4)[Fuc(a1-3)]GlcNAc(b1-6)[Neu5Ac(a2-3)Gal(b1-3)]GalNAc
Outline: as §1

[14] = biological target: Neu5Ac(a2-3)Gal(b1-4)[Fuc(a1-3)]GlcNAc6S
Outline: as §1

[15] = biological target: Neu5Ac(a2-3)Gal6S(b1-4)GlcNAc
Outline: as §1

[16] = biological target: Neu5Ac(a2-3)Gal6S(b1-4)[Fuc(a1-3)]GlcNAc
Outline: as §1

Neu5Ac(a2-3)GalNAc = biological target: Neu5Ac(a2-3)GalNAc
Outline: as §1

[17] = biological target: Neu5Ac(a2-3)GalNAc(b1-4)GlcNAc
Outline: as §1

[18] = biological target: Neu5Ac(a2-3)[GalNAc(b1-4)]Gal(b1-4)Glc
Outline: as §1

[19] = biological target: Neu5Ac(a2-3)[GalNAc(b1-4)]Gal(b1-4)GlcNAc
Outline: as §1

[20] = biological target: Neu5Ac(a2-3)[GalNAc(b1-4)]Gal(b1-4)GlcNAc(b1-3)GalNAc
Outline: as §1

[21] = biological target: Neu5Ac(a2-3)[Neu5Ac(a2-6)]GalNAc
Outline: as §1

Neu5Ac(a2-6)Gal = biological target: Neu5Ac(a2-6)Gal
Outline: as §1

[22] = biological target: Neu5Ac(a2-6)Gal(b1-3)GlcNAc(b1-3)[Gal(b1-4)GlcNAc(b1-6)]Gal(b1-4)Glc
Outline: as §1

Neu5Ac(a2-6)Gal(b1-4)Glc = biological target: Neu5Ac(a2-6)Gal(b1-4)Glc
Outline: as §1

[23] = biological target: Neu5Ac(a2-6)Gal(b1-4)GlcNAc
Outline: as §1

[24] = biological target: Neu5Ac(a2-6)Gal(b1-4)GlcNAc(b1-2)Man
Outline: as §1

[25] = biological target: Neu5Ac(a2-6)Gal(b1-4)GlcNAc(b1-2)Man(a1-3)Man(b1-4)GlcNAc(b1-4)GlcNAc
Outline: as §1

[26] = biological target: Neu5Ac(a2-6)Gal(b1-4)GlcNAc(b1-2)Man(a1-3)[Gal(b1-4)GlcNAc(b1-2)Man(a1-6)]Man(b1-4)GlcNAc(b1-4)GlcNAc
Outline: as §1

[27] = biological target: Neu5Ac(a2-6)Gal(b1-4)GlcNAc(b1-2)Man(a1-3)[GlcNAc(b1-2)Man(a1-6)]Man(b1-4)GlcNAc(b1-4)GlcNAc
Outline: as §1

[28] = biological target: Neu5Ac(a2-6)Gal(b1-4)GlcNAc(b1-2)Man(a1-3)[GlcNAc(b1-4)][Neu5Ac(a2-6)Gal(b1-4)GlcNAc(b1-2)Man(a1-6)]Man(b1-4)GlcNAc(b1-4)GlcNAc
Outline: as §1

[29] = biological target: Neu5Ac(a2-6)Gal(b1-4)GlcNAc(b1-2)Man(a1-3)[Man(a1-6)]Man(b1-4)GlcNAc(b1-4)GlcNAc
Outline: as §1

[30] = biological target: Neu5Ac(a2-6)Gal(b1-4)GlcNAc(b1-2)Man(a1-3)[Neu5Ac(a2-3)Gal(b1-4)GlcNAc(b1-2)Man(a1-6)]Man(b1-4)GlcNAc(b1-4)GlcNAc
Outline: as §1

[31] = biological target: Neu5Ac(a2-6)Gal(b1-4)GlcNAc(b1-2)Man(a1-3)[Neu5Ac(a2-6)Gal(b1-4)GlcNAc(b1-2)Man(a1-6)]Man(b1-4)GlcNAc(b1-4)GlcNAc
Outline: as §1

[32] = biological target: Neu5Ac(a2-6)Gal(b1-4)GlcNAc(b1-2)Man(a1-3)[Neu5Ac(a2-6)Gal(b1-4)GlcNAc(b1-2)Man(a1-6)]Man(b1-4)GlcNAc(b1-4)[Fuc(a1-6)]GlcNAc
Outline: as §1

[33] = biological target: Neu5Ac(a2-6)Gal(b1-4)GlcNAc(b1-2)Man(a1-6)Man(b1-4)GlcNAc(b1-4)GlcNAc
Outline: as §1

[34] = biological target: Neu5Ac(a2-6)Gal(b1-4)GlcNAc(b1-2)Man(a1-6)[Gal(b1-4)GlcNAc(b1-2)Man(a1-3)]Man(b1-4)GlcNAc(b1-4)GlcNAc
Outline: as §1

[35] = biological target: Neu5Ac(a2-6)Gal(b1-4)GlcNAc(b1-2)Man(a1-6)[GlcNAc(b1-2)Man(a1-3)]Man(b1-4)GlcNAc(b1-4)GlcNAc
Outline: as §1

[36] = biological target: Neu5Ac(a2-6)Gal(b1-4)GlcNAc(b1-2)Man(a1-6)[Man(a1-3)]Man(b1-4)GlcNAc(b1-4)GlcNAc
Outline: as §1

[37] = biological target: Neu5Ac(a2-6)Gal(b1-4)GlcNAc(b1-2)[Neu5Ac(a2-6)Gal(b1-4)GlcNAc(b1-4)]Man(a1-3)[GlcNAc(b1-4)][Neu5Ac(a2-6)Gal(b1-4)GlcNAc(b1-2)[Neu5Ac(a2-6)Gal(b1-4)GlcNAc(b1-6)]Man(a1-6)]Man(b1-4)GlcNAc(b1-4)GlcNAc
Outline: as §1

[38] = biological target: Neu5Ac(a2-6)Gal(b1-4)GlcNAc(b1-2)[Neu5Ac(a2-6)Gal(b1-4)GlcNAc(b1-4)]Man(a1-3)[GlcNAc(b1-4)][Neu5Ac(a2-6)Gal(b1-4)GlcNAc(b1-4)Man(a1-6)]Man(b1-4)GlcNAc(b1-4)GlcNAc
Outline: as §1

[39] = biological target: Neu5Ac(a2-6)Gal(b1-4)GlcNAc(b1-2)[Neu5Ac(a2-6)Gal(b1-4)GlcNAc(b1-6)]Man(a1-6)[Neu5Ac(a2-6)Gal(b1-4)GlcNAc(b1-2)Man(a1-3)][GlcNAc(b1-4)]Man(b1-4)GlcNAc(b1-4)GlcNAc
Outline: as §1

[40] = biological target: Neu5Ac(a2-6)Gal(b1-4)GlcNAc(b1-3)Gal(b1-3)GlcNAc
Outline: as §1

[41] = biological target: Neu5Ac(a2-6)Gal(b1-4)GlcNAc(b1-3)Gal(b1-4)GlcNAc
Outline: as §1

[42] = biological target: Neu5Ac(a2-6)Gal(b1-4)GlcNAc(b1-3)Gal(b1-4)GlcNAc(b1-2)Man(a1-3)[Neu5Ac(a2-6)Gal(b1-4)GlcNAc(b1-3)Gal(b1-4)GlcNAc(b1-2)Man(a1-6)]GalNAc
Outline: as §1

[43] = biological target: Neu5Ac(a2-6)Gal(b1-4)GlcNAc(b1-3)Gal(b1-4)GlcNAc(b1-3)Gal(b1-4)GlcNAc
Outline: as §1

B1: OS9-MRH (Homo sapiens), Q13438 (protein)
chain: IPELLSPMRDAPCLLKTKDWWTYEFCYGRHIQQYHMEDSEIKGEVLYLGYYQSAFDWDDETAKASKQHRLKRYHSQTYGNGSKCDLNGRPREAEVRFLCDEGAGISGDYIDRVDEPLSCSYVLTIRTPRLCPHPLLRPPPSAAPQAI
With B1 the “glycan array binding signal (z-score)” value [1] was -0.105, the “glycan array binding signal (z-score)” value [2] was -0.175 and the “glycan array binding signal (z-score)” value [3] was -1.17. For the same binder, the “glycan array binding signal (z-score)” value [4] was -1.21, the “glycan array binding signal (z-score)” value [5] was -0.094 and the “glycan array binding signal (z-score)” value [6] was 0.494. For the same binder, the “glycan array binding signal (z-score)” value [7] was -0.503, the “glycan array binding signal (z-score)” value [8] was -0.415 and the “glycan array binding signal (z-score)” value [9] was -0.211. The “glycan array binding signal (z-score)” value [10] was -1.29, the “glycan array binding signal (z-score)” value [11] was 0.151 and the “glycan array binding signal (z-score)” value [12] was -0.705. The “glycan array binding signal (z-score)” value [13] was 0.08, the “glycan array binding signal (z-score)” value [14] was -1.32 and the “glycan array binding signal (z-score)” value [15] was -1.42. For the same binder, the “glycan array binding signal (z-score)” value [16] was -0.941, the “glycan array binding signal (z-score)” value (Neu5Ac(a2-3)GalNAc) was -0.948 and the “glycan array binding signal (z-score)” value [17] was -0.392. The “glycan array binding signal (z-score)” value [18] was -0.332, the “glycan array binding signal (z-score)” value [19] was -0.607 and the “glycan array binding signal (z-score)” value [20] was -1.17. For the same binder, the “glycan array binding signal (z-score)” value [21] was -0.673, the “glycan array binding signal (z-score)” value (Neu5Ac(a2-6)Gal) was -0.293 and the “glycan array binding signal (z-score)” value [22] was 0.768. The “glycan array binding signal (z-score)” value (Neu5Ac(a2-6)Gal(b1-4)Glc) was -1.05, the “glycan array binding signal (z-score)” value [23] was -0.753 and the “glycan array binding signal (z-score)” value [24] was -1.05. The “glycan array binding signal (z-score)” value [25] was 0.674, the “glycan array binding signal (z-score)” value [26] was -0.67 and the “glycan array binding signal (z-score)” value [27] was 0.275. For the same binder, the “glycan array binding signal (z-score)” value [28] was -0.893, the “glycan array binding signal (z-score)” value [29] was -0.807 and the “glycan array binding signal (z-score)” value [30] was -1.6. For the same binder, the “glycan array binding signal (z-score)” value [31] was 0.449, the “glycan array binding signal (z-score)” value [32] was 1.78 and the “glycan array binding signal (z-score)” value [33] was -0.495. The “glycan array binding signal (z-score)” value [34] was -0.439, the “glycan array binding signal (z-score)” value [35] was -0.514 and the “glycan array binding signal (z-score)” value [36] was 1.05. The “glycan array binding signal (z-score)” value [37] was 1.11, the “glycan array binding signal (z-score)” value [38] was -0.99 and the “glycan array binding signal (z-score)” value [39] was -1.08. For the same binder, the “glycan array binding signal (z-score)” value [40] was -0.586, the “glycan array binding signal (z-score)” value [41] was -1.39 and the “glycan array binding signal (z-score)” value [42] was 0.882. For the same binder, the “glycan array binding signal (z-score)” value [43] was -0.378.
